Data as given in PubChem BioAssay AID1259308 (NCATS, 2017)
Test: 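Candidate targets for better recombinant protein yield in mammalian cells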 (primary screen). Cells: human HEK293 embryonic kidney cells stably expressing firefly luciferase (HEK-CMV-Luc2-Hygro). Knock-down reagent: single siRNA against human genes, 0.8 pmol siRNA per well. Time to read-out: 72 h. Read-out: 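Luciferase light (ONE-Glo) measured on one replicate plate set and viability (CellTiter-Glo) on the other, scaled to a negative control siRNA, with robust z-scores and luciferase per cell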. Scale: total luciferase, z-score and total luciferase, % of control: higher = more reporter protein produced. Hit rule: 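An siRNA counts as active if its total luciferase robust z-score exceeds 3; genes with two or more such siRNAs out of three were retested with fresh siRNAs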. Meaning of the calls: active = raised luciferase; inactive = no rise.
The deposit covers about 59,000 reagents; shown is an unselected part. Over the whole deposit, about 1,510 (2.6%) are marked active. 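Calls use total luciferase alone and ignore viability, so some active siRNAs may act by altering cell number.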 Unmarked entries are inactive. Reagents against one gene are numbered here. Further read-outs or replicates are left out here.

| gene symbol | siRNA no. | total luciferase, z-score | total luciferase, % of control |
| --- | --- | --- | --- |
| NANOG | 1 | 0.663 | 95.1 |
| NANOG | 2 | 1.99 | 121 |
| NANOG | 3 | 0.125 | 84.4 |
| ARL13B | 1 | -0.855 | 64.9 |
| ARL13B | 2 | 4.86 (active) | 179 |
| ARL13B | 3 | -0.276 | 76.4 |
| SLC10A2 | 1 | 0.791 | 97.6 |
| SLC10A2 | 2 | -1 | 62 |
| SLC10A2 | 3 | 0.371 | 89.3 |
| PDE5A | 1 | -0.63 | 69.4 |
| PDE5A | 2 | -0.132 | 79.3 |
| PDE5A | 3 | 1.42 | 110 |
| SDC4 | 1 | 1.33 | 108 |
| SDC4 | 2 | 3.69 (active) | 155 |
| SDC4 | 3 | -1.22 | 57.6 |
| LRRC75A | 1 | -2.08 | 40.5 |
| LRRC75A | 2 | -1.93 | 43.5 |
| LRRC75A | 3 | 0.306 | 88 |

Continued; the last 2 above are carried over.
| gene symbol | siRNA no. | total luciferase, z-score | total luciferase, % of control |
| --- | --- | --- | --- |
| LRRC75A | 2 | -1.93 | 43.5 |
| LRRC75A | 3 | 0.306 | 88 |
| KLK3 | 1 | 1.33 | 108 |
| KLK3 | 2 | -2.61 | 30 |
| KLK3 | 3 | -0.352 | 74.9 |
| ZNF711 | 1 | -1.49 | 52.3 |
| ZNF711 | 2 | 0.492 | 91.7 |
| ZNF711 | 3 | 0.789 | 97.6 |
| MRPL20 | 1 | -2.69 | 28.5 |
| MRPL20 | 2 | -0.0348 | 81.2 |
| MRPL20 | 3 | 0.188 | 85.6 |
| AP3D1 | 1 | 1.11 | 104 |
| AP3D1 | 2 | 0.522 | 92.3 |
| AP3D1 | 3 | -0.853 | 64.9 |
| SCGB2A1 | 1 | -1.13 | 59.3 |
| SCGB2A1 | 2 | -0.11 | 79.7 |
| SCGB2A1 | 3 | 1.4 | 110 |
| DHTKD1 | 1 | -0.262 | 76.7 |
| DHTKD1 | 2 | -0.478 | 72.4 |
| DHTKD1 | 3 | -0.723 | 67.5 |
| ZBTB38 | 1 | -1.38 | 54.4 |
| ZBTB38 | 2 | -0.556 | 70.8 |
| ZBTB38 | 3 | 0.871 | 99.2 |
